Protein sequences can lack the tags named with them. Some results are limits rather than exact numbers.

This data set has as its target T1, NF-κB p50 (rhNF-κB) (Homo sapiens) (UniProt P19838).
T1 sequence (looked up, limits assumed): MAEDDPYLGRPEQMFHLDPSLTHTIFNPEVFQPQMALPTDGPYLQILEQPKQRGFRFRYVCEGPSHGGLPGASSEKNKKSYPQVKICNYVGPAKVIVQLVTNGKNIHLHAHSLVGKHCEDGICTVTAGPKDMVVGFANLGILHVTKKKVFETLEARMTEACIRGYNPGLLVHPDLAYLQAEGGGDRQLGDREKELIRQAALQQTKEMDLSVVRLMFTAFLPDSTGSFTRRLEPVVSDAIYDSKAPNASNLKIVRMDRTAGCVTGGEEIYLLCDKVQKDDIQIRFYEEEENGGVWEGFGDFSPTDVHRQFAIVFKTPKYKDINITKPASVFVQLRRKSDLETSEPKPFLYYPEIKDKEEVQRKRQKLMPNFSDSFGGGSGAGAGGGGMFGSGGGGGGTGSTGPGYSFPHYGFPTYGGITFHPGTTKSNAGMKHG
The data set is described as follows: SPR. To be noted: printed as >>10-9; control aptamer; purified recombinant protein; protein details: Promega; single-stranded DNA.

The Kd is a measure of binding affinity in units of concentration. “AAGACCAGACAATGTACAGTATTGGCCTGAAGGAGTGGACTGATACGATCGATTGACAG [Taq-59]”: the dissociation constant (Kd) is greater than 1 nM.
